{"sequences": {"note": "By UniProt entry, the sequences of proteins in these tests, tags left out. Where a name states a change or a piece, a line headed by the entry shows the natural chain unless it says otherwise.", "UniProt Q15046, whole entry, looked up": "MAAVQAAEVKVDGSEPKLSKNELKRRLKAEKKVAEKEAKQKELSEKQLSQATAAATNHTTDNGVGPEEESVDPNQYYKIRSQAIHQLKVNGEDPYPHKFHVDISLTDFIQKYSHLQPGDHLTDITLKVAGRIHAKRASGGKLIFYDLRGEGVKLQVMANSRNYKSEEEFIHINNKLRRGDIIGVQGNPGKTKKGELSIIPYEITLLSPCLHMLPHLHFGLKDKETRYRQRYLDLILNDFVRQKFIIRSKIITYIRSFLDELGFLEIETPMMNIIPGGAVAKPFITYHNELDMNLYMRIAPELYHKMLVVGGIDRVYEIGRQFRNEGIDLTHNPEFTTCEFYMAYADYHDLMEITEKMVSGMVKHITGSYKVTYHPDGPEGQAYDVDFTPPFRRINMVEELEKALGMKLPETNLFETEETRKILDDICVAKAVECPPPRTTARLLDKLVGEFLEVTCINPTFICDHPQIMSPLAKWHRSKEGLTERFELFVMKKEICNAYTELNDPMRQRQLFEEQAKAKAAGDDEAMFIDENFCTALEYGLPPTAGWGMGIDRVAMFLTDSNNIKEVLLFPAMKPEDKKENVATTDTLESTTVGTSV", "UniProt Q9P0J7": "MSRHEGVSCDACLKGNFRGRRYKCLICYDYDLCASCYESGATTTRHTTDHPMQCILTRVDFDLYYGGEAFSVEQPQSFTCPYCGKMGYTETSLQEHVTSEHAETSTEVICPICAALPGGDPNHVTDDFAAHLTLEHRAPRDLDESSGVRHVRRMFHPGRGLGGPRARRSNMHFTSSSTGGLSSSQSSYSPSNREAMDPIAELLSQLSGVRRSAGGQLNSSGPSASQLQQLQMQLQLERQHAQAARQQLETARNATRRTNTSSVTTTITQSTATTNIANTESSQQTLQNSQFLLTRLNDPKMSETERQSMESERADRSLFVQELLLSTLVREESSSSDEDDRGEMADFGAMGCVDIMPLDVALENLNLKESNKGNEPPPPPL", "UniProt Q9NZM3": "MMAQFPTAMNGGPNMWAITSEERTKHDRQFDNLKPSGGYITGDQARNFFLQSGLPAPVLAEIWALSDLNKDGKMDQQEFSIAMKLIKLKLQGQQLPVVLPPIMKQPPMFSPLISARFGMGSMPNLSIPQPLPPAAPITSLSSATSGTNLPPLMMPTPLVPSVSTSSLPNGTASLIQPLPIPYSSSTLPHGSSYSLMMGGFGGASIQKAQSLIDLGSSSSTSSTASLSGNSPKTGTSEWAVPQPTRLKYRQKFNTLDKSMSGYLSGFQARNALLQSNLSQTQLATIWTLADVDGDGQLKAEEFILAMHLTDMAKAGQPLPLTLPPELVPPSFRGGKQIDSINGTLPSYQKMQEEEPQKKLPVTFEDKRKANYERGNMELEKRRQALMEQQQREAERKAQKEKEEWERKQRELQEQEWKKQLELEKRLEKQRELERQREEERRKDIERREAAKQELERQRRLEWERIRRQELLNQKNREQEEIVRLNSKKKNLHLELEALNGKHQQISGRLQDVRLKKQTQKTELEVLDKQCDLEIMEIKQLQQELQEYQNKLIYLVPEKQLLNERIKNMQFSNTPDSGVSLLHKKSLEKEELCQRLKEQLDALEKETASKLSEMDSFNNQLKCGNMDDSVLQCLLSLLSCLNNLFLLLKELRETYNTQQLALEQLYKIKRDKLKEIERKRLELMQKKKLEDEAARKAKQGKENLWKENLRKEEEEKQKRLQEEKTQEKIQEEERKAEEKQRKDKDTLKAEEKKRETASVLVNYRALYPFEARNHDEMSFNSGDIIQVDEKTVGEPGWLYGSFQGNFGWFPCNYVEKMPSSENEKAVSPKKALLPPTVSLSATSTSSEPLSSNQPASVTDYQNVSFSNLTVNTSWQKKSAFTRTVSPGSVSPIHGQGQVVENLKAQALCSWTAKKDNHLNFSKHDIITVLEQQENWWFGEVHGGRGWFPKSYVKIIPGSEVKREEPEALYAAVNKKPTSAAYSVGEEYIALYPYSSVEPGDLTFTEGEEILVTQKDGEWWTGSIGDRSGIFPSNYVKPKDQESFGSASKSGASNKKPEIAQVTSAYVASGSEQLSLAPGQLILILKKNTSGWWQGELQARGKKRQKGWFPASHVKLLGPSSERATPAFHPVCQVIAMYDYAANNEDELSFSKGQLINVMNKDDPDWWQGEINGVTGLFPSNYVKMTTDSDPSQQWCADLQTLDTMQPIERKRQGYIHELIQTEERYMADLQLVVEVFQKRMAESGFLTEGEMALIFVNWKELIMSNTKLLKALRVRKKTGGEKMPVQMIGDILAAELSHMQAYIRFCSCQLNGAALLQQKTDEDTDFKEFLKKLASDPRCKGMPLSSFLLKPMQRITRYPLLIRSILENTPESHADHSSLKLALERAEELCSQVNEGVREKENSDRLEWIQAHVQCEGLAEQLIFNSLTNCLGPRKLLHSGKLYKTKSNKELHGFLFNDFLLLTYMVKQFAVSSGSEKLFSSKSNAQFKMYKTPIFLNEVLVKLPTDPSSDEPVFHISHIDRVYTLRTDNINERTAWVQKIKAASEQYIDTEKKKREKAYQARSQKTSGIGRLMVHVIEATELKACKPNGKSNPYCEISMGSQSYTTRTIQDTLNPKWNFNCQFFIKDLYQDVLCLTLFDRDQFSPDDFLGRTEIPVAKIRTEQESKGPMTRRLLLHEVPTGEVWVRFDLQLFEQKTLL", "UniProt Q7LBC6": "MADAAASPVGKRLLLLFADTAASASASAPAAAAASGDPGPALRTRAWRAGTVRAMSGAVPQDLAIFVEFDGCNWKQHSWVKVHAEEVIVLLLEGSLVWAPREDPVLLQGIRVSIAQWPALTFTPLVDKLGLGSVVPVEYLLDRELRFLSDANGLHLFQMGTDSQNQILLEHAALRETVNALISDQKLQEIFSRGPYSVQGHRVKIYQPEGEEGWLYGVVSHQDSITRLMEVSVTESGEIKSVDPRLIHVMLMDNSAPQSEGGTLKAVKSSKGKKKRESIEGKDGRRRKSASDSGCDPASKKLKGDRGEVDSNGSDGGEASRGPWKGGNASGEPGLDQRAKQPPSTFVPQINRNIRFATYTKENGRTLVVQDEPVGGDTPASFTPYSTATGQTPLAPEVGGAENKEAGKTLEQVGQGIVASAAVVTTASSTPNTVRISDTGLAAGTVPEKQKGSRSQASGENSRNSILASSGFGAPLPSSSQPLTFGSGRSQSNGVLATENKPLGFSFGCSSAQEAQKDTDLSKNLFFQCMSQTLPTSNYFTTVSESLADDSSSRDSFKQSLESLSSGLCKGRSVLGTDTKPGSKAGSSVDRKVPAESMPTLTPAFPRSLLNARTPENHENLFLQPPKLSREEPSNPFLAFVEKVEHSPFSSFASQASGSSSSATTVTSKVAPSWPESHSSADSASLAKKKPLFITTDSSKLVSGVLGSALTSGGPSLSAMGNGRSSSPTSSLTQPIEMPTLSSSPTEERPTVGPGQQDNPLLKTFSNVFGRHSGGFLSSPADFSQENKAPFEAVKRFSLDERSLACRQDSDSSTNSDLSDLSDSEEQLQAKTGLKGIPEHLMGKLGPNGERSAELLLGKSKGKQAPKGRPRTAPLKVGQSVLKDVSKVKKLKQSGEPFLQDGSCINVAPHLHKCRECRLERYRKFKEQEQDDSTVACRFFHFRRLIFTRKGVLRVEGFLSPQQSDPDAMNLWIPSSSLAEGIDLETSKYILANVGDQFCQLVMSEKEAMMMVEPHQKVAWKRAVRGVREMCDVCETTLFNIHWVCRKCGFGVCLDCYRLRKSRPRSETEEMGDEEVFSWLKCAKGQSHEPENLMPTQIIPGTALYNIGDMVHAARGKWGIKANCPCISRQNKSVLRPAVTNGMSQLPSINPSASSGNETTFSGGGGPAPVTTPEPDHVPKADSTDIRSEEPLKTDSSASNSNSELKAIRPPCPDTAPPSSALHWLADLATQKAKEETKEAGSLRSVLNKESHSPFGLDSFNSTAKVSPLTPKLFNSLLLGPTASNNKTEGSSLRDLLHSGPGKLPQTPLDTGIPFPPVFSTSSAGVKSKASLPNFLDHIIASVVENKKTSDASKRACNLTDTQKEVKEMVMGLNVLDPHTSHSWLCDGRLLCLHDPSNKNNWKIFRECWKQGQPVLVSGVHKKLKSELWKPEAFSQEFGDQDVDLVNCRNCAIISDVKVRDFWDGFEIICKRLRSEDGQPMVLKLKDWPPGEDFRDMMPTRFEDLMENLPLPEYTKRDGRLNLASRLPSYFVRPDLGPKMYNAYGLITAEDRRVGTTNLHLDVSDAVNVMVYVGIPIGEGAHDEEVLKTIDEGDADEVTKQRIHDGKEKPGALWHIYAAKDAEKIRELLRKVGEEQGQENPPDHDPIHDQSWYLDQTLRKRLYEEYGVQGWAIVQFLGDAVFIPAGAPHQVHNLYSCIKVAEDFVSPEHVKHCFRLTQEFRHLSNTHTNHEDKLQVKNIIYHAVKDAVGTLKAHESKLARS", "UniProt Q9H7Z6": "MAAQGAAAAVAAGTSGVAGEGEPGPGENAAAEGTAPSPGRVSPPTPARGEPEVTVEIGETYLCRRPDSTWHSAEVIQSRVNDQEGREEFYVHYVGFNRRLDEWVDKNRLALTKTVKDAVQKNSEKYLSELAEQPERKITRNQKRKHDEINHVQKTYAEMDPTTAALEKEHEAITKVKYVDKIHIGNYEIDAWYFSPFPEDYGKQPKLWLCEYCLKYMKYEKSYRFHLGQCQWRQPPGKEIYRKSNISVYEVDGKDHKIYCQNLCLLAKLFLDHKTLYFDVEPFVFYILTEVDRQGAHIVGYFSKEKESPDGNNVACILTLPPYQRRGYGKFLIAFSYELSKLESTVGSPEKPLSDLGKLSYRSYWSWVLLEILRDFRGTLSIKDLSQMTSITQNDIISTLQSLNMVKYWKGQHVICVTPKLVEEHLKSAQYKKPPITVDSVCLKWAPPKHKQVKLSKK", "UniProt Q63ZY3": "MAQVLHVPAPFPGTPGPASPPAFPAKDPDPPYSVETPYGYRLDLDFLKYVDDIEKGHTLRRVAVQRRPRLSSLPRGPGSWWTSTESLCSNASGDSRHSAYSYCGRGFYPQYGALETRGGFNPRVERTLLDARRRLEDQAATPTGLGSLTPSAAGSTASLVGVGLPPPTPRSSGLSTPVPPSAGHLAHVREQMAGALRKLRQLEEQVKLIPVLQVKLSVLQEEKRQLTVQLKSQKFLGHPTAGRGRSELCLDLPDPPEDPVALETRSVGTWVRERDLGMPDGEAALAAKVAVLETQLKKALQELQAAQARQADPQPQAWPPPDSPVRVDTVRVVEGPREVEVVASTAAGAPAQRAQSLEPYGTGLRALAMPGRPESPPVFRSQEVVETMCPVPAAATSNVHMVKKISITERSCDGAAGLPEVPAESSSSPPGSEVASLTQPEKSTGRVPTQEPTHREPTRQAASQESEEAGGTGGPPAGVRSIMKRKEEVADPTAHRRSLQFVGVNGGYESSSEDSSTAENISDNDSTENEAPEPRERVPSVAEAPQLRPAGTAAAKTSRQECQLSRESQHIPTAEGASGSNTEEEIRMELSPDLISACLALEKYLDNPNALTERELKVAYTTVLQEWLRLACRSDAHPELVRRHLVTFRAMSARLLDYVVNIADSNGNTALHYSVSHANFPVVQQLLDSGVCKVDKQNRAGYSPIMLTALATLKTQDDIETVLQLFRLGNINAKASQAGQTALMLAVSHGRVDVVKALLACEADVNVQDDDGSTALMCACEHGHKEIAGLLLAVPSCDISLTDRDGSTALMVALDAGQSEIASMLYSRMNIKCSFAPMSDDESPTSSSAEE", "UniProt Q9Y6Y0": "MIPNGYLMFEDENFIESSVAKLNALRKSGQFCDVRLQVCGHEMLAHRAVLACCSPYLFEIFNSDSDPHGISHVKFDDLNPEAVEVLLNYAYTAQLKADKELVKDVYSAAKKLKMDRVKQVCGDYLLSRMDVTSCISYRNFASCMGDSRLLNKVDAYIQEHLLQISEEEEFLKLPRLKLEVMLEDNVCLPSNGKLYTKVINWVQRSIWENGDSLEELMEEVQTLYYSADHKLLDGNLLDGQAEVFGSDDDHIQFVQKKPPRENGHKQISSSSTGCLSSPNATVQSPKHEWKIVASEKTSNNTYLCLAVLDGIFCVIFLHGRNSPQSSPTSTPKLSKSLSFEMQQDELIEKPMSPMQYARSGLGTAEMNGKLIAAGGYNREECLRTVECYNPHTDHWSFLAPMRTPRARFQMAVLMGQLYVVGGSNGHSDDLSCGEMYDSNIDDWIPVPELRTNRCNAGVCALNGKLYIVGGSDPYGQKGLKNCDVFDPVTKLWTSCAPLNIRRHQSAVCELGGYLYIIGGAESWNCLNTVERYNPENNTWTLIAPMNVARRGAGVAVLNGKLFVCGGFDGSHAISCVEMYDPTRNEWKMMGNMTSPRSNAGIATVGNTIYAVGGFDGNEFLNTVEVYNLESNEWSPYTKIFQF", "UniProt O76095": "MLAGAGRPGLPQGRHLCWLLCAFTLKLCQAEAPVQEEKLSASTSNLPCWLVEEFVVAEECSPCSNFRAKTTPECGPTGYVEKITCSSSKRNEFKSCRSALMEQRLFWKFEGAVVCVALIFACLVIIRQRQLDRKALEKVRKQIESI"}, "source": "the supplement of paper PMC12067093", "about": "“Discovery and optimisation of a covalent ligand for TRIM25 and its application to targeted protein ubiquitination” (Chemical Science, 2025)", "note": "This is one part of the list.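 Further: competitive profiling in live THP-1 cells: cysteine peptides tagged with an iodoacetamide desthiobiotin (IA-DTB) probe, intensity after compound treatment relative to DMSO-treated cells.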"}
{"compound": "Cc1cc(ccc1-c1ccccc1)C(=O)N1CCCN(CC1)C(=O)CCl [compound 10]", "assay": "probe-labelled cysteine peptide fold change vs DMSO (competition) (log2 fold change); higher = less target engagement (more negative = stronger competition)", "conditions": "10 µM; THP-1; incubation time: 4 h"}
{"target": "KIF15_Q9NS87_1062_ILSEDIERDMLCEDLAHATEQLNMLTEASKK (UniProt Q9NS87)", "probe-labelled cysteine peptide fold change": -0.11}
{"target": "KDM3A_Q9Y4C1_814_PACPASTSPLNWLADLTSGNVNK (UniProt Q9Y4C1)", "probe-labelled cysteine peptide fold change": -0.145}
{"target": "ITPR1_Q14643_768_CMSDENLPYDLR (UniProt Q14643)", "probe-labelled cysteine peptide fold change": -0.0658}
{"target": "ITPR1_Q14643_530_LLQAPFTDCGDGPMLR (UniProt Q14643)", "probe-labelled cysteine peptide fold change": -0.345}
{"target": "KAT5_Q92993_317_SYSQNLCLLAK (UniProt Q92993)", "probe-labelled cysteine peptide fold change": 0.183}
{"target": "KDELC1_Q6UW63_491+493_VEPQTEDDLFPCTCHR (UniProt Q6UW63)", "probe-labelled cysteine peptide fold change": -0.399}
{"target": "KDM2A_Q9Y2K7_463_CLVDKLESLPLHKK (UniProt Q9Y2K7)", "probe-labelled cysteine peptide fold change": -0.116}
{"target": "KIF18B_Q86Y91_437_SGPPPEHLPSSPLPPHPPSQPCTPELPAGPR (UniProt Q86Y91)", "probe-labelled cysteine peptide fold change": -0.236}
{"target": "KDM1A_O60341_618_CDAVLCTLPLGVLK (UniProt O60341)", "probe-labelled cysteine peptide fold change": 0.134}
{"target": "KAT2A_Q92830_653_DYEGATLMECELNPR (UniProt Q92830)", "probe-labelled cysteine peptide fold change": -0.00417}
{"target": "KIF20B_Q96Q89_1330_NQCSQELDMK (UniProt Q96Q89)", "probe-labelled cysteine peptide fold change": 0.173}
{"target": "JADE1_Q6IE81_258+261_CLLCPK (UniProt Q6IE81)", "probe-labelled cysteine peptide fold change": 0.21}
{"target": "KIF11_P52732_740_CENIQK (UniProt P52732)", "probe-labelled cysteine peptide fold change": -0.103}
{"target": "KIF20A_O95235_87_QEDQGCVR (UniProt O95235)", "probe-labelled cysteine peptide fold change": 0.102}
{"target": "KARS_Q15046_209_KGELSIIPYEITLLSPCLHMLPHLHFGLK (UniProt Q15046)", "probe-labelled cysteine peptide fold change": -0.0106}
{"target": "KARS_Q15046_209_GELSIIPYEITLLSPCLHMLPHLHFGLK (UniProt Q15046)", "probe-labelled cysteine peptide fold change": 0.089}
{"target": "KARS_Q15046_456+463_LVGEFLEVTCINPTFICDHPQIMSPLAK (UniProt Q15046)", "probe-labelled cysteine peptide fold change": 0.0994}
{"target": "KDM1A_O60341_573_NGYSCVPVALAEGLDIK (UniProt O60341)", "probe-labelled cysteine peptide fold change": -0.0155}
{"target": "KCMF1_Q9P0J7_9+12_HEGVSCDACLK (UniProt Q9P0J7)", "probe-labelled cysteine peptide fold change": -0.0383}
{"target": "ITSN2_Q9NZM3_907_AQALCSWTAK (UniProt Q9NZM3)", "probe-labelled cysteine peptide fold change": -0.295}
{"target": "KDM3B_Q7LBC6_999_YILANVGDQFCQLVMSEK (UniProt Q7LBC6)", "probe-labelled cysteine peptide fold change": 0.0529}
{"target": "ITPR2_Q14571_1246_MNEVMNLAHTFLQNFCR (UniProt Q14571)", "probe-labelled cysteine peptide fold change": 0.0121}
{"target": "KBTBD11_O94819_537_QWSPCVAPLR (UniProt O94819)", "probe-labelled cysteine peptide fold change": -0.00854}
{"target": "KAT8_Q9H7Z6_230_FHLGQCQWR (UniProt Q9H7Z6)", "probe-labelled cysteine peptide fold change": -0.109}
{"target": "KAT8_Q9H7Z6_63_GEPEVTVEIGETYLCR (UniProt Q9H7Z6)", "probe-labelled cysteine peptide fold change": 0.142}
{"target": "KCTD5_Q9NXV2_6_AENHCELLSPAR (UniProt Q9NXV2)", "probe-labelled cysteine peptide fold change": -0.938}
{"target": "KIF22_Q14807_575_AEDCWELQISPELLAHGR (UniProt Q14807)", "probe-labelled cysteine peptide fold change": 0.244}
{"target": "KANK2_Q63ZY3_761+780_ALLACEADVNVQDDDGSTALMCACEHGHK (UniProt Q63ZY3)", "probe-labelled cysteine peptide fold change": -0.0602}
{"target": "KDM5C_P41229_707_GITEAEREAFELLPDDERQCIK (UniProt P41229)", "probe-labelled cysteine peptide fold change": 0.0451}
{"target": "KDM2B_Q8NHM5_770_SECEEAPR (UniProt Q8NHM5)", "probe-labelled cysteine peptide fold change": 0.188}
{"target": "KDM3A_Q9Y4C1_225_TLQVNCEEIPALK (UniProt Q9Y4C1)", "probe-labelled cysteine peptide fold change": -0.098}
{"target": "JMJD1C_Q15652_1935_SHCHCTNK (UniProt Q15652)", "probe-labelled cysteine peptide fold change": 0.123}
{"target": "KCTD5_Q9NXV2_25_GGIGAGLGGGLCR (UniProt Q9NXV2)", "probe-labelled cysteine peptide fold change": 0.2}
{"target": "JMJD1C_Q15652_1721+1722_QTGESFLQDDSCCEIGPNLQK (UniProt Q15652)", "probe-labelled cysteine peptide fold change": 0.165}
{"target": "KDM2A_Q9Y2K7_477_CVPTGIEDEDALIADVK (UniProt Q9Y2K7)", "probe-labelled cysteine peptide fold change": 0.103}
{"target": "IVNS1ABP_Q9Y6Y0_32_SGQFCDVR (UniProt Q9Y6Y0)", "probe-labelled cysteine peptide fold change": -0.0224}
{"target": "KDM3A_Q9Y4C1_947_RPQGLTIKPSILGFDTPHYWLCDNR (UniProt Q9Y4C1)", "probe-labelled cysteine peptide fold change": 0.131}
{"target": "JTB_O76095_85_ITCSSSK (UniProt O76095)", "probe-labelled cysteine peptide fold change": -0.38}
{"compound": "Cc1cc(ccc1-c1ccccc1)C(=O)N1CCCN(CC1)C(=O)CCl [compound 10]", "assay": "probe-labelled cysteine peptide fold change vs DMSO (competition) (log2 fold change); higher = less target engagement (more negative = stronger competition)", "conditions": "50 µM; THP-1; incubation time: 4 h"}
{"target": "KIF15_Q9NS87_1062_ILSEDIERDMLCEDLAHATEQLNMLTEASKK (UniProt Q9NS87)", "probe-labelled cysteine peptide fold change": -0.617}
{"target": "KDM3A_Q9Y4C1_814_PACPASTSPLNWLADLTSGNVNK (UniProt Q9Y4C1)", "probe-labelled cysteine peptide fold change": -0.459}
{"target": "ITPR1_Q14643_768_CMSDENLPYDLR (UniProt Q14643)", "probe-labelled cysteine peptide fold change": 0.226}
{"target": "ITPR1_Q14643_530_LLQAPFTDCGDGPMLR (UniProt Q14643)", "probe-labelled cysteine peptide fold change": -0.0978}
{"target": "KAT5_Q92993_317_SYSQNLCLLAK (UniProt Q92993)", "probe-labelled cysteine peptide fold change": 0.0984}
{"target": "KDELC1_Q6UW63_491+493_VEPQTEDDLFPCTCHR (UniProt Q6UW63)", "probe-labelled cysteine peptide fold change": 0.5}
{"target": "KDM2A_Q9Y2K7_463_CLVDKLESLPLHKK (UniProt Q9Y2K7)", "probe-labelled cysteine peptide fold change": -0.84}
{"target": "KIF18B_Q86Y91_437_SGPPPEHLPSSPLPPHPPSQPCTPELPAGPR (UniProt Q86Y91)", "probe-labelled cysteine peptide fold change": -0.226}
{"target": "KDM1A_O60341_618_CDAVLCTLPLGVLK (UniProt O60341)", "probe-labelled cysteine peptide fold change": 0.316}
{"target": "KAT2A_Q92830_653_DYEGATLMECELNPR (UniProt Q92830)", "probe-labelled cysteine peptide fold change": 0.173}
{"target": "KIF20B_Q96Q89_1330_NQCSQELDMK (UniProt Q96Q89)", "probe-labelled cysteine peptide fold change": -0.21}
{"target": "JADE1_Q6IE81_258+261_CLLCPK (UniProt Q6IE81)", "probe-labelled cysteine peptide fold change": -0.261}
{"target": "KIF11_P52732_740_CENIQK (UniProt P52732)", "probe-labelled cysteine peptide fold change": -0.0778}
{"target": "KIF20A_O95235_87_QEDQGCVR (UniProt O95235)", "probe-labelled cysteine peptide fold change": 0.315}
{"target": "KARS_Q15046_209_KGELSIIPYEITLLSPCLHMLPHLHFGLK (UniProt Q15046)", "probe-labelled cysteine peptide fold change": 0.107}
{"target": "KARS_Q15046_209_GELSIIPYEITLLSPCLHMLPHLHFGLK (UniProt Q15046)", "probe-labelled cysteine peptide fold change": 0.146}
{"target": "KARS_Q15046_456+463_LVGEFLEVTCINPTFICDHPQIMSPLAK (UniProt Q15046)", "probe-labelled cysteine peptide fold change": -0.0295}
{"target": "KDM1A_O60341_573_NGYSCVPVALAEGLDIK (UniProt O60341)", "probe-labelled cysteine peptide fold change": 0.182}
{"target": "KCMF1_Q9P0J7_9+12_HEGVSCDACLK (UniProt Q9P0J7)", "probe-labelled cysteine peptide fold change": -0.611}
{"target": "ITSN2_Q9NZM3_907_AQALCSWTAK (UniProt Q9NZM3)", "probe-labelled cysteine peptide fold change": -0.181}
{"target": "KDM3B_Q7LBC6_999_YILANVGDQFCQLVMSEK (UniProt Q7LBC6)", "probe-labelled cysteine peptide fold change": 0.0575}
{"target": "ITPR2_Q14571_1246_MNEVMNLAHTFLQNFCR (UniProt Q14571)", "probe-labelled cysteine peptide fold change": 0.0144}
{"target": "KBTBD11_O94819_537_QWSPCVAPLR (UniProt O94819)", "probe-labelled cysteine peptide fold change": -0.122}
{"target": "KAT8_Q9H7Z6_230_FHLGQCQWR (UniProt Q9H7Z6)", "probe-labelled cysteine peptide fold change": 0.0661}
{"target": "KAT8_Q9H7Z6_63_GEPEVTVEIGETYLCR (UniProt Q9H7Z6)", "probe-labelled cysteine peptide fold change": 0.0799}
{"target": "KCTD5_Q9NXV2_6_AENHCELLSPAR (UniProt Q9NXV2)", "probe-labelled cysteine peptide fold change": -0.785}
{"target": "KIF22_Q14807_575_AEDCWELQISPELLAHGR (UniProt Q14807)", "probe-labelled cysteine peptide fold change": 0.25}
{"target": "KANK2_Q63ZY3_761+780_ALLACEADVNVQDDDGSTALMCACEHGHK (UniProt Q63ZY3)", "probe-labelled cysteine peptide fold change": -0.142}
{"target": "KDM5C_P41229_707_GITEAEREAFELLPDDERQCIK (UniProt P41229)", "probe-labelled cysteine peptide fold change": -0.369}
{"target": "KDM2B_Q8NHM5_770_SECEEAPR (UniProt Q8NHM5)", "probe-labelled cysteine peptide fold change": 0.147}
{"target": "KDM3A_Q9Y4C1_225_TLQVNCEEIPALK (UniProt Q9Y4C1)", "probe-labelled cysteine peptide fold change": 0.103}
{"target": "JMJD1C_Q15652_1935_SHCHCTNK (UniProt Q15652)", "probe-labelled cysteine peptide fold change": -0.146}
{"target": "KCTD5_Q9NXV2_25_GGIGAGLGGGLCR (UniProt Q9NXV2)", "probe-labelled cysteine peptide fold change": -0.225}
{"target": "JMJD1C_Q15652_1721+1722_QTGESFLQDDSCCEIGPNLQK (UniProt Q15652)", "probe-labelled cysteine peptide fold change": -0.302}
{"target": "KDM2A_Q9Y2K7_477_CVPTGIEDEDALIADVK (UniProt Q9Y2K7)", "probe-labelled cysteine peptide fold change": -0.0878}
{"target": "IVNS1ABP_Q9Y6Y0_32_SGQFCDVR (UniProt Q9Y6Y0)", "probe-labelled cysteine peptide fold change": -0.0322}
{"target": "KDM3A_Q9Y4C1_947_RPQGLTIKPSILGFDTPHYWLCDNR (UniProt Q9Y4C1)", "probe-labelled cysteine peptide fold change": -0.0916}
{"target": "JTB_O76095_85_ITCSSSK (UniProt O76095)", "probe-labelled cysteine peptide fold change": -0.208}
